Reference: PubChem BioAssay AID1259284 (Sanger Institute, 2017)

Screen: 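siRNA screen across the kinome seeking partners for BYL719, cetuximab or trametinib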 (primary screen)
System: SW48 human colorectal cancer cells
Reagents: siRNA pool against human genes
Conditions: anchor drug BYL719 at 1 µM, cetuximab at 5 µg/ml or trametinib at 10 nM, or DMSO vehicle alone
Read-out: 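Cell viability relative to non-targeting pool wells, replicate mean, with robust z-scores and drug synergy scores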
Direction: robust z-score, no drug: higher = more cells survive knock-down
Active means: 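a knock-down is essential if viability without drug gives a robust z-score under -3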
Meaning of the calls: active = essential without drug; inactive = no change without drug
Here is one part, drawn at random, of 794 reagents tested. 16 of all reagents (2%) were called active. 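Calls concern knock-down without drug only; drug synergy was judged apart, with scores above 0.15 taken as synergy.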 Entries without a mark were called inactive. Further read-outs or replicates are left out here. The record does not give: the amount of reagent, the time to read-out.

Against RPS6KB1, the entry reads robust z-score, no drug 0.426.
Against CDK5 the deposit lists robust z-score, no drug 0.426.
With knock-down of VRK2 the results were robust z-score, no drug 0.426.
BRWD1 scored robust z-score, no drug 0.426.
For MARK2, the values are robust z-score, no drug -0.192.
TESK1 showed robust z-score, no drug 0.426.
With knock-down of TAOK1 the results were robust z-score, no drug -0.967.
Knock-down of COMMD3 gave: robust z-score, no drug 0.426.
Knock-down of CDKN1C resulted in: robust z-score, no drug 0.426.
IDH2 showed robust z-score, no drug 0.426.
With knock-down of FGFR4, the screen gave robust z-score, no drug 0.426.
After knock-down of OXSR1, the screen gave robust z-score, no drug -0.73.
RAD21 scored robust z-score, no drug -3.5 (active).
For ADCK2, the entry reads robust z-score, no drug 0.426.
Depletion of SNRK gave: robust z-score, no drug 0.401.
CALM2 gave robust z-score, no drug 0.426.
Against CLK1, the values are robust z-score, no drug 0.426.
ITSN1 showed robust z-score, no drug 0.426.
With knock-down of GK2 the results were robust z-score, no drug 0.426.
NEK10 showed robust z-score, no drug 0.426.

Records listed so far whose target name starts with R or r:
RPS6KB1 — robust z-score, no drug: 0.426
RAD21 — robust z-score, no drug: -3.5 (active)

Additional results follow.
For CAMK1 the deposit lists robust z-score, no drug 0.426.
PACSIN1 gave robust z-score, no drug 0.426.
Against HK2, the values are robust z-score, no drug 0.426.
Silencing of MAPK15 resulted in: robust z-score, no drug 0.426.
GAK showed robust z-score, no drug 0.426.
Against TNK2, the values are robust z-score, no drug 0.426.
EPHB3 scored robust z-score, no drug 0.426.
With knock-down of PRKAA2, the record shows robust z-score, no drug 0.426.
After knock-down of WT1, the record shows robust z-score, no drug 0.287.
After knock-down of CEP290, the screen gave robust z-score, no drug 0.426.
With knock-down of PIP5KL1, the screen gave robust z-score, no drug 0.426.
RIPK2 showed robust z-score, no drug -3.01 (active).
Against FLT4, the entry reads robust z-score, no drug 0.426.
MERTK scored robust z-score, no drug 0.426.
With knock-down of PEAK1, the record shows robust z-score, no drug -0.947.
Depletion of CAMK2G gave: robust z-score, no drug -0.442.
